The values below come from paper PMC3371017.

Amino acid sequences for entries named in this document (tags omitted). A change or cut given only in a name is not applied to a line headed by its entry.
UniProt Q04206: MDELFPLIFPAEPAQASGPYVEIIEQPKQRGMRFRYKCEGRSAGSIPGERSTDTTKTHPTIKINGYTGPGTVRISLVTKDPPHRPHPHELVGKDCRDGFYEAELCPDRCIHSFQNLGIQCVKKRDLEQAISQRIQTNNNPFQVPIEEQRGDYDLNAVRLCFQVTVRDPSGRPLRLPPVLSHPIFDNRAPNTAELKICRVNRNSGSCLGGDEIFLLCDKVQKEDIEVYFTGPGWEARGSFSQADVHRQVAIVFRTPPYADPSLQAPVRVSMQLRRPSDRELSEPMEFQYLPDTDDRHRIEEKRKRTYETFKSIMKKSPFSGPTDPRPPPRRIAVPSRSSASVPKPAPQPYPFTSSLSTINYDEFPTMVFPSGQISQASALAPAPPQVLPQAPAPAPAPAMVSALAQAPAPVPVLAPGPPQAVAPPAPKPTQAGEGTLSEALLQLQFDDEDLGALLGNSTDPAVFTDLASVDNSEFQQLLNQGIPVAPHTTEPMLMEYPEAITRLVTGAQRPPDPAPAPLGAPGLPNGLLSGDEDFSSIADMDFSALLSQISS
UniProt Q13547: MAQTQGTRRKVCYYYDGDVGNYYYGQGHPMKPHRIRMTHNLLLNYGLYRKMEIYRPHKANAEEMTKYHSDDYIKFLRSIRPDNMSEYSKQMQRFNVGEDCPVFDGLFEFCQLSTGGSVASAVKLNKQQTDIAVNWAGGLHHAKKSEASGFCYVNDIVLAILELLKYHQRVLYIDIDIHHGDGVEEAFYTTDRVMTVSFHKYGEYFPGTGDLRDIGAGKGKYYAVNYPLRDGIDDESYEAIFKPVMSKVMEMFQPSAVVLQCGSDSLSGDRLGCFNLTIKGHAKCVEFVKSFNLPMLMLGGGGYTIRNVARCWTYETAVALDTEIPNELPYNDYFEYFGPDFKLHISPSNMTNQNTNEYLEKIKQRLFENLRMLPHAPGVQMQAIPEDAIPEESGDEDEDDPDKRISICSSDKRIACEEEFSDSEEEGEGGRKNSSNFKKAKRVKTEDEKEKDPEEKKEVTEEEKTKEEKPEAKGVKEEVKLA

Results are given in words; binding and its absence hold for the method and conditions named. In cells and extracts the contact can be indirect. Some results given as binding are weak or reduced against the parent protein; the word gives no strength. For part of these data: Where a sequence is shown, tags or fusion partners need not be part of it.

Assay [1] has as its target T1, GST-ATM(1–247) fusion protein (UniProt Q13315).
T1 sequence: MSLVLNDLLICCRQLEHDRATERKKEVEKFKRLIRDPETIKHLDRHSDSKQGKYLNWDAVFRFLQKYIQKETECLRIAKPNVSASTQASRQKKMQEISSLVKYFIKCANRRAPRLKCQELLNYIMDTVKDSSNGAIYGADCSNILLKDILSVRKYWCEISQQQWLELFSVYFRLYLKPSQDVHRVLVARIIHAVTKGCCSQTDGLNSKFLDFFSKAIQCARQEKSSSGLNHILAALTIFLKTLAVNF
Put plainly: pull-down; GST or GST-ATM(1-247) on glutathione agarose beads, incubated 2 hours at 4°C with pre-cleared lysate of HEK-293 cells transfected with pCMV-HA p65 wt; LB buffer (50 mM Tris HCl, 150 mM NaCl, 2 mM EDTA, 1% NP-40, 10% glycerol, pH 8.00); p65 detected by immunoblotting; only the target purified. For orientation: A western blot detects proteins with antibodies after separation by electrophoresis.

The target of a further assay is HA-p65 wild type (human) (UniProt Q04206). The assay is described as follows: co-IP; HA-p65 wt or S547A immunoprecipitated with HA antibody from lysates of transfected HEK-293 cells after 5 hours of etoposide treatment; IPLS buffer (20 mM Tris HCl, 120 mM NaCl, 0.5 mM EDTA, 0.5% NP40, 10% glycerol, pH 7,5), 4°C; co-immunoprecipitated HDAC1 detected by western blotting.

The target in a further assay is HA-p65 S547A (human) (UniProt Q04206). Described as above.

Take “HA-p65 wild type (from UniProt Q04206 1-551)”: the binding entry in assay [1] is reported as “binds”.
For “HDAC1 (from UniProt Q13547 1-482) (enzyme)”, the binding result is reported as “binds” in the assay with HA-p65 wild type (human) and “no binding” in the assay with HA-p65 S547A (human).
